Measurements reported in the supplement of paper PMC10849652.
This is one part of the list.

Sequences of proteins named here, by UniProt entry; tags and fusion partners are left off. A change or cut given only in a name is not applied to a line headed by its entry.
UniProt Q13505: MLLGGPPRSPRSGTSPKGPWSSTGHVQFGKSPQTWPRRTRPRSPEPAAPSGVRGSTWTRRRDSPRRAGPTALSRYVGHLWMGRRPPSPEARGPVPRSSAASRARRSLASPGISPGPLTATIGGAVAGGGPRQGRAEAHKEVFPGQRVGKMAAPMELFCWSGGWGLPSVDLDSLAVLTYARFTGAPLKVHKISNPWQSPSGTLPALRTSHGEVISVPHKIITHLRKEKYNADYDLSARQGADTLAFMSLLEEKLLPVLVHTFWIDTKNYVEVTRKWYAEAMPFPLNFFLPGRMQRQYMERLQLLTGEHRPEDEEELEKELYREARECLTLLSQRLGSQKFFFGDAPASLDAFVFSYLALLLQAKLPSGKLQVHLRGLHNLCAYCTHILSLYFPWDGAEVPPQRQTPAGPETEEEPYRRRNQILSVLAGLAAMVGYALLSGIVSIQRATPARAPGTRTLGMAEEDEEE
UniProt Q13614, whole entry, looked up: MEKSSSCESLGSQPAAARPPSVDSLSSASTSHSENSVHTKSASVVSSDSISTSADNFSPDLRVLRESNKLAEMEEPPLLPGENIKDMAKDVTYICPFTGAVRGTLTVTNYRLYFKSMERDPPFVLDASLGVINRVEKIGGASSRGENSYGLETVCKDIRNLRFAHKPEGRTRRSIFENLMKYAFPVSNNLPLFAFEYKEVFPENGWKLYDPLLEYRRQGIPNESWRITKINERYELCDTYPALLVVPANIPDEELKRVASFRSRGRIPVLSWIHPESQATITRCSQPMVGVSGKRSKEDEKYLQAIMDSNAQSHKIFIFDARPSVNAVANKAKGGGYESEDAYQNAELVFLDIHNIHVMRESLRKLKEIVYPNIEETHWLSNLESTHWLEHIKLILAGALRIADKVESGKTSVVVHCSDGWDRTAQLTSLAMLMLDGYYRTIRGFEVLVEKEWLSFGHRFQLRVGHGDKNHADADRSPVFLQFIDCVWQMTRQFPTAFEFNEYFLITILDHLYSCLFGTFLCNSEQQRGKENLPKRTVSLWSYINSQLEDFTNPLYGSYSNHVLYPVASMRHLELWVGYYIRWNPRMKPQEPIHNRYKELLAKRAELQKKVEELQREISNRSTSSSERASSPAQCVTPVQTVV
UniProt Q03426, whole entry, looked up: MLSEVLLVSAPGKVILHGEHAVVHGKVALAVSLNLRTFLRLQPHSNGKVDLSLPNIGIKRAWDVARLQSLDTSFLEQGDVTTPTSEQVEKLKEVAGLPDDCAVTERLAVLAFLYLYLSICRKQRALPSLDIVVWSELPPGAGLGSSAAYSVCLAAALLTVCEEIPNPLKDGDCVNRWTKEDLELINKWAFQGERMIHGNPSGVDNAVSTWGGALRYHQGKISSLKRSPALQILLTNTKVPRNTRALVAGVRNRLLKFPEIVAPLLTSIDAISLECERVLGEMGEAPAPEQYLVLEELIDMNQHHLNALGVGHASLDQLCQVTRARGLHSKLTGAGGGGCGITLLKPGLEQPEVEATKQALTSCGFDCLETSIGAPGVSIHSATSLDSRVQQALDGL
UniProt P49914: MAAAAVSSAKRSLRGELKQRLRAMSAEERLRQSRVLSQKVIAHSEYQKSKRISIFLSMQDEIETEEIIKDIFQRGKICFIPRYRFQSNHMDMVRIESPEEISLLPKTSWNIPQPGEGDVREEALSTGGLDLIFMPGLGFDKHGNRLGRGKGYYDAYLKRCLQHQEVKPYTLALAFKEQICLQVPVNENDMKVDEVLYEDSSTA
UniProt Q13496: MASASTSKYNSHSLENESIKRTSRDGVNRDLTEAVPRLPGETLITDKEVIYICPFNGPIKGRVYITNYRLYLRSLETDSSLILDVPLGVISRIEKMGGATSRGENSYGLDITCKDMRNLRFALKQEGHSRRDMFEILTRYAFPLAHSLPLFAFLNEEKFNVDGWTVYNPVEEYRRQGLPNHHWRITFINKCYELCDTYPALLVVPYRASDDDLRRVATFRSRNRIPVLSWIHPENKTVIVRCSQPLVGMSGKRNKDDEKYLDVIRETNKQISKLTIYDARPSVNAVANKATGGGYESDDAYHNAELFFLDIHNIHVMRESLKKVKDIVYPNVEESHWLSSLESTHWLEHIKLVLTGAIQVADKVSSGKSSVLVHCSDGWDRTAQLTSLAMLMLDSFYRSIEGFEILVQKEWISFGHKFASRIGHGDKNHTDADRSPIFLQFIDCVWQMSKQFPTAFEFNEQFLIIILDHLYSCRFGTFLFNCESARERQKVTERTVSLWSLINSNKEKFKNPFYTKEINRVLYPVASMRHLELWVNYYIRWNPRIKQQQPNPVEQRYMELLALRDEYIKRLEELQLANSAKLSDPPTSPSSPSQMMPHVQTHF
UniProt P12829: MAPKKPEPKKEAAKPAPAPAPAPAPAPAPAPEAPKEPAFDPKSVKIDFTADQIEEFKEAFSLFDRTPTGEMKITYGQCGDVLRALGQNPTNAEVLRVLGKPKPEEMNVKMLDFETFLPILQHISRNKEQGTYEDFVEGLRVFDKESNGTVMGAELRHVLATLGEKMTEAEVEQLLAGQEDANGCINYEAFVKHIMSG
UniProt Q9BUK6: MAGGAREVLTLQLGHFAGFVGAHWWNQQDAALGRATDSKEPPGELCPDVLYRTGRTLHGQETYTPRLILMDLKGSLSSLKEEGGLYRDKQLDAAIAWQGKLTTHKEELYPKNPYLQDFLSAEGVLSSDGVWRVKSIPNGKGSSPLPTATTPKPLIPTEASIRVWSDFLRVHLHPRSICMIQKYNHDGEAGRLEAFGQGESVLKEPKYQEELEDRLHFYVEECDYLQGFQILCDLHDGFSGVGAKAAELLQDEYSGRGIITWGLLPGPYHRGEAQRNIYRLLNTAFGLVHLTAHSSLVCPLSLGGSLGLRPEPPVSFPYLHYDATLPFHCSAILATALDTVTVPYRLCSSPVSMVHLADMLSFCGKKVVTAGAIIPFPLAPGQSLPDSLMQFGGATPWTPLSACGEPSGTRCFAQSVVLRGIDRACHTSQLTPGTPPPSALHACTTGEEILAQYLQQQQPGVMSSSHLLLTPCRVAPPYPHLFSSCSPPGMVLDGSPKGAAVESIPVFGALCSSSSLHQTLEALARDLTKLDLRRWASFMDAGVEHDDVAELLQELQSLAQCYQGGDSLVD
UniProt Q9HD23: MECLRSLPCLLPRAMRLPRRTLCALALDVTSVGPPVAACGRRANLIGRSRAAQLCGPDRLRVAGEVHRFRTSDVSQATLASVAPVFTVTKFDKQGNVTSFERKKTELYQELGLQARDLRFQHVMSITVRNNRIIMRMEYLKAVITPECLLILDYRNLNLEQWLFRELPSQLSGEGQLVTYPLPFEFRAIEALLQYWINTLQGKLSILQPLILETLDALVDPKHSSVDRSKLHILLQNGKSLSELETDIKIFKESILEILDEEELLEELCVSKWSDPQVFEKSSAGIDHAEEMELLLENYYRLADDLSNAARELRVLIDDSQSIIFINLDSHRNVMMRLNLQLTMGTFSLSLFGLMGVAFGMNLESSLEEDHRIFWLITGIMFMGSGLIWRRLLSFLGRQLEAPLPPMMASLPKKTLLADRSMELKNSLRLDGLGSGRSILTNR
UniProt Q9Y2Z2: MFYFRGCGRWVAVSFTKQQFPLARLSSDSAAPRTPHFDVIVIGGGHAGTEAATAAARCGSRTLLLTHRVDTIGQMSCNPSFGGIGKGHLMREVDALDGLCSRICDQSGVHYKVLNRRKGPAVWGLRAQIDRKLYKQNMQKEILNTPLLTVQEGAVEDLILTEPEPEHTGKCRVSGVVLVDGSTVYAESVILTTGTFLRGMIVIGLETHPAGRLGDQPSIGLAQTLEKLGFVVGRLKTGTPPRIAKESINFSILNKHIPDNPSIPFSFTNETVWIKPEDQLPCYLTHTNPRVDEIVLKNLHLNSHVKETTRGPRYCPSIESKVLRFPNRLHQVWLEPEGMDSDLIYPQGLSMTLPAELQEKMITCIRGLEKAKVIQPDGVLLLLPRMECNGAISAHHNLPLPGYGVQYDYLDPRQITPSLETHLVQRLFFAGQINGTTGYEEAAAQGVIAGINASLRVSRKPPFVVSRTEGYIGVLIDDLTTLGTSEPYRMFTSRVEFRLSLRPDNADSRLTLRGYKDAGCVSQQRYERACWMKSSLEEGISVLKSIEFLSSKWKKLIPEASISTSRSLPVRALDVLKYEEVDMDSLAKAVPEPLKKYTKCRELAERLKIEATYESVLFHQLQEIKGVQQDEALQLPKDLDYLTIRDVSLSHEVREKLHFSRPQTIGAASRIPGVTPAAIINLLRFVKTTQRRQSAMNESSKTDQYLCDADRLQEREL
UniProt Q9UBK8: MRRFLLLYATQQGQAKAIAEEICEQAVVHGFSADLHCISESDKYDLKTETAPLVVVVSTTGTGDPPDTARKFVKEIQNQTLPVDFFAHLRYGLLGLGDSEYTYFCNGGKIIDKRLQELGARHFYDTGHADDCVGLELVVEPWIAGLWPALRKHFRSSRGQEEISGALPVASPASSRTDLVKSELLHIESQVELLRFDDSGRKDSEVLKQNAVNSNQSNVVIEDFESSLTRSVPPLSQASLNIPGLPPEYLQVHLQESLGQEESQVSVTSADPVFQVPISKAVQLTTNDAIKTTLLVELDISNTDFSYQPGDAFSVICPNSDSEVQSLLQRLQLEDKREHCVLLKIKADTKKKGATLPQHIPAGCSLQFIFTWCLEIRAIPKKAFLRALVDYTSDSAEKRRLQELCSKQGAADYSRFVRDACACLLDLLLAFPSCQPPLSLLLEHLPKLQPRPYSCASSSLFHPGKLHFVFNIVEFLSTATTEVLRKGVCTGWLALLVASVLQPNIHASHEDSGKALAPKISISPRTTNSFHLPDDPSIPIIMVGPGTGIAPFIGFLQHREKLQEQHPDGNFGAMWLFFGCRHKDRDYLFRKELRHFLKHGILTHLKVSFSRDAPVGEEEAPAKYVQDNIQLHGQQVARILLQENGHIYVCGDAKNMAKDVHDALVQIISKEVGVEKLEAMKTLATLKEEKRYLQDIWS
UniProt O00159, whole entry, looked up: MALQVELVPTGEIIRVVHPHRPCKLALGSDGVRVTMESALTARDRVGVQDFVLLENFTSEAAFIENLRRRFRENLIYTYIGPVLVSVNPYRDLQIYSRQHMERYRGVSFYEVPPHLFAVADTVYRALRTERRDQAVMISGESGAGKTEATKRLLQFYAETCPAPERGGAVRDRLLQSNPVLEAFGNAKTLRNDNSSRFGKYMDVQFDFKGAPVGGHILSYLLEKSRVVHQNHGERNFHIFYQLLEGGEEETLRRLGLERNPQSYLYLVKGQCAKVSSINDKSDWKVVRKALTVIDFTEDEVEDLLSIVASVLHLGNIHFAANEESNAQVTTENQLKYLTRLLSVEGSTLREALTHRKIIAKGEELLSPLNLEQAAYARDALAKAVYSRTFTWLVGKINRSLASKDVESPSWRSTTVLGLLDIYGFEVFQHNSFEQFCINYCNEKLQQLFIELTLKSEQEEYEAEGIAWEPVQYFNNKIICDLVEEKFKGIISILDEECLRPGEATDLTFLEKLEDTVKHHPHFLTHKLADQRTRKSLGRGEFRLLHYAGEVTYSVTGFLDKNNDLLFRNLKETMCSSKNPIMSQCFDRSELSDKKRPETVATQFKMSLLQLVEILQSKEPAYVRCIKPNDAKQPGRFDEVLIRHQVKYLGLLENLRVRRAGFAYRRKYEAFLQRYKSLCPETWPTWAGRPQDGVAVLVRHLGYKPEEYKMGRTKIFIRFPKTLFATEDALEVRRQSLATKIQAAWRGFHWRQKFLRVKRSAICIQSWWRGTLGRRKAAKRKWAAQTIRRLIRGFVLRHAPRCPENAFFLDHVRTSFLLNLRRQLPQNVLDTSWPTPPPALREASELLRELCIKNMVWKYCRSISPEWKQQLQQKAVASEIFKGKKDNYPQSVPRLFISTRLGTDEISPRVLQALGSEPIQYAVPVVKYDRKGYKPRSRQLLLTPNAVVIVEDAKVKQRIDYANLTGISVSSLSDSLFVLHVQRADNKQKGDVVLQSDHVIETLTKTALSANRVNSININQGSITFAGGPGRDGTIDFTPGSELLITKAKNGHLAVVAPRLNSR
UniProt Q7Z6M4: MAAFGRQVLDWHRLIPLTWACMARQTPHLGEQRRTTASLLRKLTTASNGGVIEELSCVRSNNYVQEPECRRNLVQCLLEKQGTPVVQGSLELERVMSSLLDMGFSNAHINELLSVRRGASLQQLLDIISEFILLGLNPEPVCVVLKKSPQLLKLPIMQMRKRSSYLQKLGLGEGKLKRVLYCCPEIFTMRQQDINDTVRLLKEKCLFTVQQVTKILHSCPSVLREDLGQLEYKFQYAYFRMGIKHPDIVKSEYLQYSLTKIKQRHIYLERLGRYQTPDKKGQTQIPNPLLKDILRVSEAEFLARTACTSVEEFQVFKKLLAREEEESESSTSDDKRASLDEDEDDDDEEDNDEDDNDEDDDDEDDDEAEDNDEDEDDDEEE

Experiments:
Assay in all cases: log2 fold change, soluble protein after heating vs DMSO (PISA); higher = thermal stabilisation; K562 cells, 10 uM, 30 min; active = over 0.2 and 3.5 SD of the protein, either way, in both replicates (recomputed)
[1] = compound: CS(=O)(=O)c1ccc(-c2cnc(N)c(C(=O)Nc3ccccc3)n2)cc1
Method in brief: (§1)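 K562 cells at 2×10^6 cells/mL were exposed to 10 μM compound for 30 min, then aliquots were heated for 3 min across 48°C-58°C, pooled, and extracted in PBS containing 0.5% NP-40 at 4°C. The supernatant after 21,000xg for 90 min was taken as soluble protein and measured by TMTpro 16plex LC-MS/MS with channel sums equalised. Thermal stability is reported relative to control samples, with values from duplicates. Fold changes are given on a log2 scale.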

crizotinib = compound: C[C@@H](Oc1cc(-c2cnn(C3CCNCC3)c2)cnc1N)c1c(Cl)ccc(F)c1Cl [crizotinib]
Method in brief: as §1

[2] = compound: C[C@@H]1COCCN1C2=NC(=NC(=C2)C3(CC3)S(=O)(=O)C)C4=C5C=CNC5=CC=C4
Method in brief: as §1

[3] = compound: C[C@H](C1=CC=C(C=C1)C(=O)NC2=C3C=CNC3=NC=C2)N
Method in brief: as §1

duvelisib = compound: C[C@H](Nc1ncnc2nc[nH]c12)c1cc2cccc(Cl)c2c(=O)n1-c1ccccc1 [duvelisib]
Method in brief: as §1

gandotinib = compound: Cc1cc(Nc2cc(CN3CCOCC3)c3nc(C)c(Cc4ccc(Cl)cc4F)n3n2)n[nH]1 [gandotinib]
Method in brief: as §1

tozasertib = compound: Cc1cc(Nc2cc(N3CCN(C)CC3)nc(Sc3ccc(NC(=O)C4CC4)cc3)n2)n[nH]1 [tozasertib]
Method in brief: as §1

[4] = compound: Cc1cc(SCc2sc(-c3ccc(C(F)(F)F)cc3)nc2C)ccc1OCC(=O)O
Method in brief: as §1

doramapimod = compound: Cc1ccc(-n2nc(C(C)(C)C)cc2NC(=O)Nc2ccc(OCCN3CCOCC3)c3ccccc23)cc1 [doramapimod]
Method in brief: as §1

ispinesib = compound: Cc1ccc(C(=O)N(CCCN)[C@@H](c2nc3cc(Cl)ccc3c(=O)n2Cc2ccccc2)C(C)C)cc1 [ispinesib]
Method in brief: as §1

bafetinib = compound: Cc1ccc(NC(=O)c2ccc(CN3CC[C@H](N(C)C)C3)c(C(F)(F)F)c2)cc1Nc1nccc(-c2cncnc2)n1 [bafetinib]
Method in brief: as §1

[5] = compound: Cc1cccc(CC(=O)N2CCc3c2ccc(-c2cn(C)c4ncnc(N)c24)c3F)n1
Method in brief: as §1

nilotinib = compound: Cc1cn(-c2cc(NC(=O)c3ccc(C)c(Nc4nccc(-c5cccnc5)n4)c3)cc(C(F)(F)F)c2)cn1 [nilotinib]
Method in brief: as §1

[6] = compound: Cc1nc(Nc2n[nH]c3c2CN(C(=O)N[C@H](CN(C)C)c2ccccc2)C3(C)C)c2sccc2n1
Method in brief: as §1

dasatinib = compound: Cc1nc(Nc2ncc(C(=O)Nc3c(C)cccc3Cl)s2)cc(N2CCN(CCO)CC2)n1 [dasatinib]
Method in brief: as §1

[7] = compound: Cc1ncc(-c2ccnc(Nc3ccc(S(C)(=O)=O)cc3)n2)n1C(C)C
Method in brief: as §1

[8] = compound: Cn1cc(-c2ccc3c(c2)CCN3C(=O)Cc2cccc(C(F)(F)F)c2)c2c(N)ncnc21
Method in brief: as §1

[9] = compound: Cn1cc(-c2ccc3nnc(C(F)(F)c4ccc5ncccc5c4)n3n2)cn1
Method in brief: as §1

tipifarnib = compound: Cn1cncc1[C@@](N)(c1ccc(Cl)cc1)c1ccc2c(c1)c(-c1cccc(Cl)c1)cc(=O)n2C [tipifarnib]
Method in brief: as §1

mubritinib = compound: FC(F)(F)c1ccc(/C=C/c2nc(COc3ccc(CCCCn4ccnn4)cc3)co2)cc1 [mubritinib]
Method in brief: as §1

| Target | log2 fold change [1] | log2 fold change (crizotinib) | log2 fold change [2] | log2 fold change [3] | log2 fold change (duvelisib) | log2 fold change (gandotinib) | log2 fold change (tozasertib) | log2 fold change [4] | log2 fold change (doramapimod) | log2 fold change (ispinesib) | log2 fold change (bafetinib) | log2 fold change [5] | log2 fold change (nilotinib) | log2 fold change [6] | log2 fold change (dasatinib) | log2 fold change [7] | log2 fold change [8] | log2 fold change [9] | log2 fold change (tipifarnib) | log2 fold change (mubritinib) |
| --- | --- | --- | --- | --- | --- | --- | --- | --- | --- | --- | --- | --- | --- | --- | --- | --- | --- | --- | --- | --- |
| MTX1 (UniProt Q13505) | inactive: 0.069 | inactive: -0.011 | inactive: 0.112 | inactive: -0.037 | inactive: 0.007 | inactive: -0.01 | inactive: -0.031 | inactive: 0.021 | inactive: 0.017 | inactive: 0.081 | inactive: -0.04 | inactive: -0.039 | inactive: 0.061 | inactive: -0.013 | inactive: -0.034 | inactive: -0.023 | inactive: 0.082 | inactive: -0.043 | inactive: 0.026 | inactive: 0.006 |
| MRPS15 (UniProt P82914) | inactive: 0.09 | inactive: -0.092 | inactive: 0.022 | inactive: 0.072 |  | inactive: -0.053 |  | inactive: 0.067 | inactive: 0.042 | active: -0.318 | inactive: 0.126 | inactive: 0.159 | inactive: -0.33 | inactive: 0.056 | inactive: -0.046 | inactive: 0.07 | inactive: 0.05 | inactive: 0.032 | inactive: -0.105 | inactive: 0.172 |
| MTMR2 (UniProt Q13614) | inactive: -0.023 | inactive: -0.001 | inactive: -0.045 | inactive: -0.008 | inactive: 0.028 | inactive: 0.039 | inactive: -0.017 | inactive: -0.041 | inactive: 0.042 | inactive: 0.064 | inactive: -0.009 | inactive: -0.024 | inactive: 0 | inactive: 0.049 | inactive: -0.039 | inactive: -0.026 | inactive: 0.121 | inactive: -0.1 | inactive: 0.038 | inactive: 0.012 |
| MVK (UniProt Q03426) | inactive: 0.008 | inactive: 0.038 | inactive: 0.026 | inactive: -0.028 | inactive: 0.04 | inactive: -0.069 | inactive: -0.002 | inactive: -0.001 | inactive: 0.007 | inactive: 0.029 | inactive: -0.058 | inactive: -0.011 | inactive: -0.012 | inactive: -0.012 | inactive: 0.029 | inactive: -0.011 | inactive: 0.023 | inactive: -0.006 | inactive: -0.021 | inactive: -0.002 |
| MTHFS (UniProt P49914) | inactive: 0.103 | inactive: -0.026 | inactive: 0.117 | inactive: -0.098 |  | inactive: -0.021 |  | inactive: 0.037 | inactive: 0.013 | inactive: 0.046 | inactive: 0.074 | inactive: 0.014 | inactive: 0.154 | inactive: 0.045 | inactive: -0.094 | inactive: 0.003 | inactive: 0.032 | inactive: -0.008 | inactive: 0.001 | inactive: 0.045 |
| MTM1 (UniProt Q13496) | inactive: -0.003 | inactive: 0.049 | inactive: -0.016 | inactive: -0.05 | inactive: -0.016 | inactive: 0.087 | inactive: -0.021 | inactive: 0.03 | inactive: -0.003 | inactive: 0.096 | inactive: -0.016 | inactive: 0.013 | inactive: 0.036 | inactive: 0.021 | inactive: -0.051 | inactive: -0.049 | inactive: 0.045 | inactive: -0.041 | inactive: -0.025 | inactive: 0.066 |
| MYL4 (UniProt P12829) | inactive: -0.019 | inactive: 0.061 | inactive: 0.115 | inactive: -0.087 | inactive: 0.039 | inactive: 0.077 | inactive: 0.019 | inactive: -0.054 | inactive: 0.006 | inactive: 0.025 | inactive: -0.026 | inactive: -0.027 | inactive: 0.024 | inactive: 0.01 | inactive: 0.086 | inactive: -0.005 | inactive: 0.023 | inactive: -0.008 | inactive: 0.037 | inactive: 0.024 |
| MSTO1 (UniProt Q9BUK6) | inactive: -0.014 | inactive: -0.081 | inactive: 0.09 | inactive: 0.025 |  | inactive: -0.003 |  | inactive: 0.009 | inactive: 0.027 | inactive: -0.053 | inactive: -0.03 | inactive: 0.028 | inactive: -0.057 | inactive: 0.033 | inactive: -0.174 | inactive: -0.005 | inactive: 0.064 | inactive: 0.037 | inactive: -0.096 | inactive: 0.011 |
| MRS2 (UniProt Q9HD23) | inactive: 0.006 | inactive: 0.001 | inactive: 0.002 | inactive: 0.03 | inactive: 0.031 | inactive: -0.076 | inactive: -0.003 | inactive: -0.018 | inactive: -0.001 | inactive: 0.088 | inactive: -0.03 | inactive: -0.054 | inactive: -0.02 | inactive: 0.021 | inactive: 0.003 | inactive: -0.019 | inactive: -0.025 | inactive: -0.044 | inactive: 0.002 | inactive: 0.002 |
| MTO1 isoform 6 (UniProt Q9Y2Z2) | inactive: 0.126 | inactive: -0.006 | inactive: 0.239 | inactive: 0.096 | inactive: 0.167 | inactive: -0.057 | inactive: -0.142 | inactive: 0.002 | inactive: -0.037 | inactive: -0.153 |  | inactive: -0.01 | inactive: -0.077 | inactive: -0.057 | inactive: -0.233 | inactive: 0.033 | inactive: -0.027 | inactive: 0.085 | inactive: -0.098 | inactive: -0.104 |
| MTRR isoform 1 (UniProt Q9UBK8) | inactive: 0.031 | inactive: 0.021 | inactive: 0.099 | inactive: 0.009 | inactive: 0.109 | inactive: 0.022 | inactive: -0.011 | inactive: 0.059 | inactive: 0.038 | inactive: -0.184 | inactive: -0.06 | inactive: 0.064 | inactive: -0.192 | inactive: 0.011 | inactive: -0.135 | inactive: 0.035 | inactive: 0.047 | inactive: -0.044 | inactive: 0.027 | inactive: 0.054 |
| MYO1C (UniProt O00159) | inactive: 0.152 | inactive: -0.324 | inactive: -0.082 | inactive: 0.312 | inactive: -0.066 | inactive: -0.113 | inactive: -0.092 | inactive: 0.136 | inactive: -0.088 | inactive: -0.423 | inactive: -0.128 | inactive: 0.051 | inactive: -0.119 | inactive: -0.099 | inactive: -0.17 | inactive: -0.049 | inactive: 0.015 | inactive: 0.015 | inactive: -0.043 | inactive: 0.034 |
| MTERF4 (UniProt Q7Z6M4) | inactive: 0.03 | inactive: 0.094 | inactive: 0.18 | inactive: 0.034 | inactive: -0.177 |  | inactive: -0.005 | inactive: 0.12 | inactive: 0.043 | inactive: 0.301 |  |  | inactive: 0.017 | inactive: 0.022 | inactive: -0.158 | inactive: -0.025 | inactive: -0.179 | inactive: 0.098 | inactive: -0.033 | inactive: 0.051 |
| MRPS16 (UniProt Q9Y3D3) | inactive: 0.061 | inactive: 0.014 | inactive: 0.028 | inactive: 0.159 |  | inactive: -0.031 |  |  | inactive: 0.001 | inactive: -0.266 | inactive: 0.192 | inactive: 0.151 | inactive: -0.187 | inactive: 0.009 |  | inactive: -0.053 | inactive: 0.049 | inactive: 0.092 | inactive: -0.094 | inactive: 0.16 |
| MRPS6 (UniProt P82932) | inactive: -0.038 | inactive: -0.076 | inactive: 0.117 | inactive: 0.085 |  | inactive: -0.016 |  | inactive: 0.081 | inactive: 0.048 | inactive: -0.208 | inactive: 0.062 | inactive: 0.159 | inactive: -0.146 | inactive: 0.062 | inactive: -0.02 | inactive: -0.009 | inactive: 0.007 | inactive: 0.148 | inactive: -0.106 | inactive: 0.112 |
| MRPS18B (UniProt Q9Y676) | inactive: -0.187 | inactive: -0.047 | inactive: 0.075 | inactive: 0.145 |  | inactive: -0.028 |  | inactive: 0.157 | inactive: 0.029 | active: -0.397 | inactive: 0.125 | inactive: 0.055 | inactive: -0.154 | inactive: 0.098 | inactive: -0.024 | inactive: -0.342 | inactive: 0.005 | inactive: 0.081 | inactive: -0.059 | inactive: 0.172 |

Complete entries, quoted from the list. Order of values: log2 fold change [1] | log2 fold change (crizotinib) | log2 fold change [2] | log2 fold change [3] | log2 fold change (duvelisib) | log2 fold change (gandotinib) | log2 fold change (tozasertib) | log2 fold change [4] | log2 fold change (doramapimod) | log2 fold change (ispinesib) | log2 fold change (bafetinib) | log2 fold change [5] | log2 fold change (nilotinib) | log2 fold change [6] | log2 fold change (dasatinib) | log2 fold change [7] | log2 fold change [8] | log2 fold change [9] | log2 fold change (tipifarnib) | log2 fold change (mubritinib)
MYL4 (UniProt P12829) is listed as inactive: -0.019 | inactive: 0.061 | inactive: 0.115 | inactive: -0.087 | inactive: 0.039 | inactive: 0.077 | inactive: 0.019 | inactive: -0.054 | inactive: 0.006 | inactive: 0.025 | inactive: -0.026 | inactive: -0.027 | inactive: 0.024 | inactive: 0.01 | inactive: 0.086 | inactive: -0.005 | inactive: 0.023 | inactive: -0.008 | inactive: 0.037 | inactive: 0.024
MTM1 (UniProt Q13496) is listed as inactive: -0.003 | inactive: 0.049 | inactive: -0.016 | inactive: -0.05 | inactive: -0.016 | inactive: 0.087 | inactive: -0.021 | inactive: 0.03 | inactive: -0.003 | inactive: 0.096 | inactive: -0.016 | inactive: 0.013 | inactive: 0.036 | inactive: 0.021 | inactive: -0.051 | inactive: -0.049 | inactive: 0.045 | inactive: -0.041 | inactive: -0.025 | inactive: 0.066
